Measured values as given in PubChem BioAssay AID1347423 (Functional Genomics Laboratory (NCATS/FGL), 2020).
The campaign covered roughly 52,000 sequences. About 210 (0.4%) were called active.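 How the source made its calls: active means gene whose silencing raises cell survival under the drug, median off-target-corrected z-score across its silencing RNAs 2 or more; inactive means the rest.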 This is one part of the list.

assay: Resistance to Poly (ADP-Ribose) Polymerase inhibitor: Gene Identification via Genome-wide siRNA Screen; conditions: mouse BRCA2 R2336H ES cells, olaparib, CellTiter-Glo viability; active compounds read high
Method in brief: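 Mouse BRCA2 R2336H ES cells were reverse-transfected with siRNA (20 nM final), treated at 48 h with 500 nM olaparib, and read by CellTiter-Glo after 72 h. Scores: MAD-based z per siRNA, median per gene, seed off-target correction.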

Sequence	z-score
GGGAUUCCUGAAGCUUCUCTT against Serpinb9b	inactive: -1.24
GGAGGCCAUCACACUUAGATT against 4933421I07Rik	inactive: -1.3
CAGAGUAUAGCAUAGUGACTT against BC050099	inactive: -0.33
GCUCUAUAGUUAAUUAGGGTT against Rbm3	inactive: 0.0324
CGUUUGUACCUGCGGAAAATT against Olfr270	inactive: 1.59
CCACAUGACCUUACAGCCATT against Zdhhc8	inactive: -0.733
GGAUACAAAGAGAGUUGUCTT against Eif3s8	inactive: -2.49
CCUCGGAUAAGGUUAUUGCTT against AI317223	inactive: 0.673
GGUCUACCAUUUCACCUUGTT against Cops4	inactive: -2.31
GGUACACUGGUAUACGUAUTT against AA175286	inactive: 0.0292
CCAAGUUGAGAAAUUUCUGTT against Cndp1	inactive: -0.22
CCCUUCUUUCAAGAAUCUUTT against Olfr325	inactive: -0.596
GCAUCAUUAUCUUACCAACTT against Olfr826	inactive: -0.371
GGACAGAUAGUCCUUCGCUTT against Slc7a8	inactive: -0.0739
GGGACAAUUGGAAAGGCGATT against 2410080P20Rik	inactive: -0.485
GCCGUGGAUCGAAUAAUUCTT against Coq7	inactive: -0.745
GCCAGAGACAAGUAUCAGCTT against Egln2	inactive: -1.41
CCAUGUGAAUGUCUUUAUUTT against Xtrp3s1	inactive: 0.223
GGUCUUACCAACAGAACCCTT against Rad51ap1	inactive: 0.371
GCCAAAUUAGGUGACACUATT against 1190002H23Rik	inactive: 0.601
GCUAUUUGACUUGUUGUAATT against Rsb30	inactive: -0.272
CGUGCACUGACCAACCAUATT against Dcxr	inactive: -0.573
CCCUUAAUGUUUCUAUGGCTT against Klf5	inactive: 2.5
GGAACUCGGAAUUUCUGCCTT against Csf2	inactive: -0.754
GGAGUCGAGAGAGCAUUGGTT against Slc30a7	inactive: -1.54
GGGAUACGUUAAUUGUAACTT against Slc6a5	inactive: -0.56

Sequence	z-score
GGGUAUGGGAGGACUUUUGTT against V1rd4	inactive: 0.469
GCCUCGUUGACUCCACUAUTT against Rab3ip	inactive: -0.552
GUCCUGCUUUCUCUCAUCUTT against Olfr686	inactive: 3.84
GGAGCAAGAUCAAAUAUGATT against Cflar	inactive: -0.46
GCAUUGGACCAGUCCAGAUTT against Nr6a1	inactive: 1.06
GCCCAAAAGUGGUUUCCAATT against Rab11fip2	inactive: -1.11
GGUAUACCAUUCUCAUGAGTT against Olfr332	inactive: -0.157
CCUCCCAGUACACUUGAAATT against Cox7a1	inactive: 0.417
GGAGAUGGCACAGUCAGUCTT against Slc22a8	inactive: 1.03
CCCUUGUCUCAUGUCAAGGTT against Eras	inactive: 1.42
CGAGAGUGGGUGGGUUGAATT against BC055757	inactive: -2.09
GGGAGUGCUUUAGAAAAAATT against C730036D15Rik	inactive: -1.16
GGAGAGGUUCCAUGUGACUTT against 1620401E04Rik	inactive: 0.779
GGCCAAUGGGUUAUCUGGATT against Scotin	inactive: -1.27
GCUUCCAGACAAGCUUCGATT against Fthfsdc1	inactive: -0.985
GCUGCAUCAAAUCUUCCAUTT against Prlpc1	inactive: -0.42
GGAUUUACAGAAGUGAAGGTT against Cald1	inactive: 1.42
GCCUUCUGAUAAUAUUAUGTT against C330002D13Rik	inactive: 1.27
CCUGCAUGACGGAAUUCUUTT against Acacb	inactive: 0.307
GGCUGUGAAGUCUAAAACUTT against Thbs4	inactive: 1.54
CGUAUCAAACAGGAAAUGGTT against Arid5b	inactive: 1.02
CCCAAGCACCAGCCCUAUATT against 1200004M23Rik	inactive: -0.676
CCAAUAAAUUACAAGACGATT against Slc22a9	inactive: 0.0191
CCGCUUUAAGAUAAACACUTT against 4921503C21Rik	inactive: -0.23
GGAAGUUUUGCUAUUACACTT against Ubap1	inactive: -1.2
CCUAUGUCAAAAAGGUUCGTT against Slc4a2	inactive: -0.409

Sequence	z-score
GGGCAGUCAUAGCUUUAGUTT against MGC58365	inactive: 0.123
GGUCAAAUGAGCAGAAUAATT against Foxi1	inactive: -1.22
GGGUCCUUUCAAAUAUAUATT against 1200016B17Rik	inactive: -0.663
GGGACAUCAUGUGAAGGACTT against Timm50	inactive: -0.0671
GGAUCAAUGUGGUACCUAUTT against Sf3a1	inactive: -3.21
GCUUUUCAGGGCAGGUUACTT against BC062109	inactive: -0.619
GCUAACAGUAUCCUUAUUUTT against V1rb3	inactive: -1.66
GGUAAACUGACCCAAGCUGTT against A630026F21Rik	inactive: -3.43
GCCUUUUAUUUGACUCAUATT against Zfp346	inactive: 0.0155
GGCUAUCCAGAGAUACGUGTT against 3300001G02Rik	inactive: 1.13
GCCGUUUUAUUCACGUGAATT against 1810033M07Rik	inactive: -0.105
GGAUCAUGAAUACGUUCAGTT against Tubb4	inactive: 0.0428
GCUCAACAGACUCUGUACUTT against Igsf4d	inactive: 2.89
GCCACCAAGUACUUUGGUUTT against V1rg4	inactive: 0.951
GCCAGUUGACUCUUCUUUATT against 6030404E16Rik	inactive: 0.181
GCCAGGACUUGUUAAAAAGTT against 3732412D22Rik	inactive: 0.154
GCUGUUACCUCCAAGAGUCTT against Stra13	inactive: -0.311
GGUUAUCCAACCUAGAAUATT against Tmlhe	inactive: -0.7
GGUGGGAAUUACCUUACUUTT against 6820402O20Rik	inactive: 1.26
GGGAAGCUCGUUUUAACAATT against 2400003N08Rik	inactive: -1.97
CGAGAGUGAUGCGCAUUUCTT against Sf3b5	inactive: -3.21
GGAAGAAAAUCUGAAGCUATT against Scoc	inactive: 0.325
GUACUUCUGGGAAGAAGAGTT against D130074J02Rik	inactive: -0.455
GGACAUCCUUCACCUCACATT against Ptges	inactive: -0.117
CCAUCCCAUAUGUUCCGGUTT against 2610009E16Rik	inactive: -2.18
CCAUUCUCUACAUUCACUCTT against Olfr944	inactive: -0.787

Five consecutive entries from above, for reference:
Sequence	z-score
GGGCAGUCAUAGCUUUAGUTT against MGC58365	inactive: 0.123
GGUCAAAUGAGCAGAAUAATT against Foxi1	inactive: -1.22
GGGUCCUUUCAAAUAUAUATT against 1200016B17Rik	inactive: -0.663
GGGACAUCAUGUGAAGGACTT against Timm50	inactive: -0.0671
GGAUCAAUGUGGUACCUAUTT against Sf3a1	inactive: -3.21

Carrying on.

Sequence	z-score
GCUGGAUACUAAUUGCUUATT against Parva	inactive: 1.79
GGUGCACAUUCAGAACGAUTT against Hars2	inactive: -1.71
GCUUUUCAGAGCGAUCUCATT against Vps52	inactive: 0.499
CGCCAUAGUUGGUUUUGUUTT against Scamp4	inactive: -0.959
GGGUUACGUACAACACAUUTT against Mtf1	inactive: -0.818
GCCCUUAACAAGAAUGAGUTT against Six6	inactive: 0.339
CCAAAGUCAUCGAUGCAAATT against Cst6	inactive: 0.967
GGUCUAUGGUAGUGGAAUATT against Magea7	inactive: -1.58
GGAGAACAAGAUCUUACAGTT against Nurit	inactive: -0.741
GCAUUUUGAAUCACUUGAATT against Brca2	inactive: 1.76
GGGAAAAGAAAAGAGGACATT against Serf1	inactive: -0.561
GCUCAACCCUCAUUGCUUCTT against Zc3hdc8	inactive: -1.92
GCUUGGUCAUUUUAAUAGGTT against AW125441	inactive: -0.1
GCUGGGUGUAAUGUUUCCUTT against E130107N23Rik	inactive: -0.896
CCUGUAAUGAGUAUGACAUTT against Commd10	inactive: -0.271
ACUGUUGCAGCCUCUCUCATT against 1700029I15Rik	inactive: 1.31
CCGUACAAGAAAAAGUCGUTT against Srrm1	inactive: 0.248
GGAGCAGCUAGACUUCUUUTT against Abhd8	inactive: 0.203
GCAAAACACACUGAUGGUGTT against Stx16	inactive: -0.292
GGAAAGAUCUACGAGAUCUTT against Unc5a	inactive: 1.36
CGCAUCAUAAUGAUUGUGATT against Matn2	inactive: 1.04
GUCAGAGAAGCAUCCAGGATT against MGC65558	inactive: -2.41
GCGAAAACUUGGGAUAUUUTT against Mtmr1	inactive: -1.25
GCAAUGGUUGAGUUUGAGUTT against 2810036L13Rik	inactive: 0.372
GGUACUUACAAUUUCAUCATT against 1500019C06Rik	inactive: 2.11
